Counter-ions that a name gives are not always drawn. The list shows a part of the results. The numbers are fractions of the control, whatever unit the source prints. Most values lie at the level of the controls, where differences are scatter.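 A lentiviral reporter stably expressed in MIN6 mouse insulinoma beta cells uses Pdx1 and Ins1 promoters to drive separate nucleus-targeted fluorescent proteins; automated imaging with Hoechst nuclear stain counted cells. Possible hits were drugs shifting Ins1 promoter signal more than two median absolute deviations from DMSO controls, with Pdx1 activity roughly normal.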
Tested on: MIN6
Experiment: % Pdx1+ Ins1+ (double-positive, mature) cells relative to DMSO control (fold of DMSO control); higher = more mature Ins1 promoter-active cells
Settings: 8.5 µM; 48 h; glucose 5 mM

| SMILES | % Pdx1+ Ins1+ |
| --- | --- |
| Clc1ccccc1CN1CCc2sccc2C1 [Ticlopidine hydrochloride] | 1.04 |
| Nc1ccc(O)c(C(=O)O)c1 [Mesalamine] | 0.909 |
| Nc1ccc(S(=O)(=O)Nc2ncccn2)cc1 [Sulfadiazine] | 0.95 |
| C#C[C@]1(OC(C)=O)CC[C@H]2[C@@H]3CCC4=C[C@@H](OC(C)=O)CC[C@@H]4[C@H]3CC[C@@]21C [Ethynodiol diacetate] | 0.974 |
| C#C[C@]1(O)CC[C@H]2[C@@H]3CCC4=CC(=O)CC[C@@H]4[C@H]3CC[C@@]21C [Norethindrone] | 1.06 |
| CO[C@@]1(NC(=O)C(C(=O)O)c2ccc(O)cc2)C(=O)N2C(C(=O)O)=C(CSc3nnnn3C)CO[C@@H]21 (some centres not stated) [Moxalactam disodium salt] | 0.981 |
| CCCCCCCCCCCCCCCC[N+](C)(C)CCN(Cc1ccc(OC)cc1)c1ncccn1 [Thonzonium bromide] | 0.0576 |
| CCN(CC)CCCC(C)Nc1c2ccc(Cl)cc2nc2ccc(OC)cc12 (configuration not stated) [Quinacrine dihydrochloride dihydrate] | 0.465 |
| CC(=O)N1CCN(c2ccc(OCC3COC(Cn4ccnc4)(c4ccc(Cl)cc4Cl)O3)cc2)CC1 (configuration not stated) [Ketoconazole] | 1 |
| C#C[C@]1(O)CC[C@H]2[C@@H]3CCc4cc(OC)ccc4[C@H]3CC[C@@]21C [Ethynylestradiol 3-methyl ether] | 0.982 |
| CC(C)NCC(O)c1ccc(NS(C)(=O)=O)cc1 (configuration not stated) [Sotalol hydrochloride] | 1.06 |
| CCOC(=O)Nc1ccc2c(c1)N(C(=O)CCN1CCOCC1)c1ccccc1S2 [Moricizine hydrochloride] | 0.951 |
| COc1cc2c(cc1OC)-c1cc3ccc(OC)c(OC)c3c[n+]1CC2 [Palmatine chloride] | 0.926 |
| COC(=O)[C@H]1[C@H]2C[C@@H]3c4[nH]c5cc(OC)ccc5c4CCN3C[C@H]2C[C@@H](OC(=O)c2cc(OC)c(OC)c(OC)c2)[C@@H]1OC [Reserpine] | 0.965 |
| CNC(=C[N+](=O)[O-])NCCSCc1ccc(CN(C)C)o1 [Ranitidine hydrochloride] | 1.01 |
| CNCCC=C1c2ccccc2CCc2ccccc21 [Nortriptyline hydrochloride] | 0.811 |
| C[C@H]1[C@H](NC(=O)/C(=N\OC(C)(C)C(=O)O)c2csc(N)n2)C(=O)N1S(=O)(=O)O [Aztreonam] | 1.03 |
| Cc1ccc(/C(=C\CN2CCCC2)c2ccccn2)cc1 [Triprolidine hydrochloride] | 1.15 |
| CC(C)(O/N=C(\C(=O)N[C@@H]1C(=O)N2C(C(=O)[O-])=C(C[n+]3ccccc3)CS[C@H]12)c1csc(N)n1)C(=O)O [Ceftazidime pentahydrate] | 0.899 |
| O=C1C=CC(=O)c2c1ccc1c2ccc2ccccc21 [Chrysene-1,4-quinone] | 0.946 |
| CN1CCN(C(c2ccccc2)c2ccc(Cl)cc2)CC1 (configuration not stated) [(1-[(4-Chlorophenyl)phenyl-methyl]-4-methylpiperazine)] | 0.813 |
| O=C(N/N=C/c1ccc([N+](=O)[O-])o1)c1ccc(O)cc1 [Nifuroxazide] | 0.316 |
| CN(N=O)C(=O)N[C@@H](C=O)[C@@H](O)[C@H](O)[C@H](O)CO [Streptozotocin] | 0.861 |
| CCC(=O)[C@@]1(C)[C@H](C)C[C@H]2[C@@H]3CCC4=CC(=O)C=C[C@]4(C)[C@H]3[C@@H](O)C[C@@]21C [Rimexolone] | 0.869 |

Quoted at random: two compounds from above, in no set order.

| SMILES | % Pdx1+ Ins1+ |
| --- | --- |
| CCOC(=O)Nc1ccc2c(c1)N(C(=O)CCN1CCOCC1)c1ccccc1S2 [Moricizine hydrochloride] | 0.951 |
| Nc1ccc(O)c(C(=O)O)c1 [Mesalamine] | 0.909 |

More entries follow:

| SMILES | % Pdx1+ Ins1+ |
| --- | --- |
| CCc1cc(C(N)=S)ccn1 [Ethionamide] | 0.96 |
| CC[C@]12CCCN3CCc4c(n(c5ccccc45)C(=O)C1)[C@@H]32 [Eburnamonine (-)] | 0.838 |
| C[C@]12C=CC(=O)C=C1CC[C@@H]1[C@@H]2C(=O)C[C@@]2(C)[C@H]1CC[C@]2(O)C(=O)CO [Prednisone] | 1.09 |
| CNC(=C[N+](=O)[O-])NCCSCc1csc(CN(C)C)n1 [Nizatidine] | 0.971 |
| CCn1cc(C(=O)O)c(=O)c2cc(F)c(N3CCNC(C)C3)c(F)c21 (configuration not stated) [Lomefloxacin hydrochloride] | 1.07 |
| COc1cc(C)nc(-n2nc(C)cc2OC)n1 [Epirizole] | 1.16 |
| CS(=O)(=O)Nc1ccc([N+](=O)[O-])cc1Oc1ccccc1 [Nimesulide] | 1.04 |
| CNNCc1ccc(C(=O)NC(C)C)cc1 [Procarbazine hydrochloride] | 0.904 |
| C[N+]1(C)CCC(=C(c2ccccc2)c2ccccc2)CC1 [Diphemanil methylsulfate] | 1.01 |
| NS(=O)(=O)c1cc2c(cc1Cl)NCNS2(=O)=O [Hydrochlorothiazide] | 1 |
| CN(C)CCC=C1c2ccccc2C=Cc2ccccc21 [Cyclobenzaprine hydrochloride] | 0.903 |
| C[n+]1cccc(C(=O)[O-])c1 [Trigonelline] | 0.848 |
| C[C@@H]1C(=O)O[C@H]2C[C@@]34[C@H]5C[C@@H](C(C)(C)C)[C@]36[C@@H](OC(=O)[C@@H]6O)O[C@@]4(C(=O)O5)[C@]21O [Ginkgolide A] | 0.967 |
| CC(=O)Oc1cc(C(C)C)c(OCCN(C)C)cc1C [Moxisylyte hydrochoride] | 0.996 |
| CC(=O)OCC(=O)[C@@]1(O)CC[C@H]2[C@@H]3CCC4=CC(=O)C=C[C@]4(C)[C@@]3(F)[C@@H](O)C[C@@]21C [Isoflupredone acetate] | 1 |
| CN(C)CCCOc1nn(Cc2ccccc2)c2ccccc12 [Benzydamine hydrochloride] | 1.09 |
| Nc1ccc(S(=O)(=O)Nc2ccc(Cl)nn2)cc1 [Sulfachloropyridazine] | 0.831 |
| COc1cc2nc(N3CCN(C(=O)C4CCCO4)CC3)nc(N)c2cc1OC (configuration not stated) [Terazosin hydrochloride] | 0.804 |
| C[C@@H]1C[C@H]2[C@@H]3C[C@H](F)C4=CC(=O)C=C[C@]4(C)[C@@]3(F)[C@@H](O)C[C@]2(C)[C@@]1(O)C(=O)CO [Flumethasone] | 1.01 |
| O=C(O)Cc1ccc(-c2ccccc2)cc1 [Felbinac] | 0.959 |
| Clc1ccc(CCC(Cn2ccnc2)Sc2c(Cl)cccc2Cl)cc1 (configuration not stated) [Butoconazole nitrate] | 1.09 |
| N#Cc1ccc(C(c2ccc(C#N)cc2)n2cncn2)cc1 [Letrozole] | 0.934 |
| C[N+]1(C)CCC(OC(=O)C(O)(c2ccccc2)C2CCCC2)C1 (configuration not stated) [Glycopyrrolate] | 0.965 |
| N=C(NCCCCCCNC(=N)NC(=N)Nc1ccc(Cl)cc1)NC(=N)Nc1ccc(Cl)cc1 [Chlorhexidine] | 0.437 |

| SMILES | % Pdx1+ Ins1+ |
| --- | --- |
| NCc1ccccc1CC(=O)N[C@@H]1C(=O)N2C(C(=O)O)=C(CSc3nnnn3CC(=O)O)CS[C@H]12 [Ceforanide] | 1.04 |
| COc1c2occc2cc2ccc(=O)oc12 [Methoxy-8-psoralen] | 0.943 |
| CN1CCN(C2=Nc3ccccc3Oc3ccc(Cl)cc32)CC1 [Loxapine succinate] | 1.09 |
| CCN(CC)CCOC(=O)C1(C2CCCCC2)CCCCC1 [Dicyclomine hydrochloride] | 1.08 |
| CC(N/C(=N\C#N)Nc1ccncc1)C(C)(C)C (configuration not stated) [Pinacidil] | 1.13 |
| Cc1[nH]ccc2c1[nH]c1cc(=O)ccc12 [Harmol hydrochloride monohydrate] | 0.872 |
| CN(C)CCCN1c2ccccc2Sc2ccc(C(F)(F)F)cc21 [Triflupromazine hydrochloride] | 1.08 |
| COc1ccc([C@@H]2CC(=O)c3c(O)cc(O)cc3O2)cc1O [Hesperetin] | 1.09 |
| COc1cc(C(=O)OCCCN2CCCN(CCCOC(=O)c3cc(OC)c(OC)c(OC)c3)CC2)cc(OC)c1OC [Dilazep dihydrochloride] | 1.13 |
| CC[N+](C)(C)c1cccc(O)c1 [Edrophonium chloride] | 1.23 |
| CCCOc1cc(N)ccc1C(=O)OCCN(CC)CC [Propoxycaine hydrochloride] | 0.958 |
| OCCN1CCN(CC/C=C2/c3ccccc3Sc3ccc(C(F)(F)F)cc32)CC1 [Flupentixol dihydrochloride cis-(Z)] | 1.04 |
| CC(=O)OCC(=O)[C@@]1(O)CC[C@H]2[C@@H]3CCC4=CC(=O)CC[C@]4(C)[C@@]3(F)[C@@H](O)C[C@@]21C [Fludrocortisone acetate] | 0.934 |
| COc1ccc2c3c([nH]c2c1)[C@H]1C[C@H]2[C@H](C[C@@H](O)[C@H](OC)[C@H]2C(=O)O)CN1CC3 [Reserpinic acid hydrochloride] | 0.883 |
| CCCCN(CCCC)CCCOC(=O)c1ccc(N)cc1 [Butacaine] | 1.14 |
| Cc1ccc(C(=O)c2ccc(CC(=O)O)n2C)cc1 [Tolmetin sodium salt dihydrate] | 1.06 |
| COC(=O)Nc1nc2cc(C(=O)c3cccs3)ccc2[nH]1 [Nocodazole] | 0.886 |
| CC[N+](C)(CC)CCOC(=O)C1c2ccccc2Oc2ccccc21 [Methantheline bromide] | 0.781 |
| Cc1ncc(C[n+]2csc(CCO)c2C)c(N)n1 [Thiamine hydrochloride] | 0.948 |
| CCN[C@H]1CN(CCCOC)S(=O)(=O)c2sc(S(N)(=O)=O)cc21 [Brinzolamide] | 1.04 |
| NS(=O)(=O)c1cc(C2(O)NC(=O)c3ccccc32)ccc1Cl (configuration not stated) [Chlorthalidone] | 0.9 |
| C=CC(N)CCC(=O)O (configuration not stated) [Vigabatrin] | 0.887 |
| CC(Cc1cccc(C(F)(F)F)c1)NCCOC(=O)c1ccccc1 (configuration not stated) [Benfluorex hydrochloride] | 0.937 |
| CC(=O)S[C@@H]1CC2=CC(=O)CC[C@]2(C)[C@H]2CC[C@@]3(C)[C@@H](CC[C@@]34CCC(=O)O4)[C@H]12 [Spironolactone] | 1.18 |

At a glance, some entries already given.

| SMILES | % Pdx1+ Ins1+ |
| --- | --- |
| CCC(=O)[C@@]1(C)[C@H](C)C[C@H]2[C@@H]3CCC4=CC(=O)C=C[C@]4(C)[C@H]3[C@@H](O)C[C@@]21C [Rimexolone] | 0.869 |
| CCc1cc(C(N)=S)ccn1 [Ethionamide] | 0.96 |
| CC[C@]12CCCN3CCc4c(n(c5ccccc45)C(=O)C1)[C@@H]32 [Eburnamonine (-)] | 0.838 |
| C[C@]12C=CC(=O)C=C1CC[C@@H]1[C@@H]2C(=O)C[C@@]2(C)[C@H]1CC[C@]2(O)C(=O)CO [Prednisone] | 1.09 |
